Reference: PubChem BioAssay AID743121 (NCATS, 2013)
Test: 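Knock-downs that sensitise breast cancer cells to camptothecin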 (primary screen). Cells: MDA-MB-231 cells, a human breast cancer line. Knock-down reagent: single siRNA against human genes, 20 nM siRNA (0.8 pmol per well). Time to read-out: 120 h (drug added 48 h after transfection, read 72 h later). Challenge: camptothecin 20 nM (about EC30) for 72 h; vehicle 0.1% DMSO in parallel plates. Measured: 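CellTiter-Glo ATP signal, scaled to control siRNA as percent viability; sensitisation given as log2 of untreated divided by camptothecin-treated viability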. Scale: log2 vehicle/camptothecin viability: higher = stronger sensitisation to camptothecin; viability with camptothecin: higher = more viable cells. Units: viability with camptothecin in % of control. Hit rule: 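Each gene scored by redundant siRNA activity (RSA) over its individual siRNA ratios; a gene is called active at p < 0.001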.
Here is a random part of about 26,000 reagents. 167 of them (0.63%) count as active. 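Calls are per gene from RSA p-values that are not deposited; an individual active-marked siRNA can sensitise only weakly.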 A number with no mark means an inactive call. The numbers tell different reagents against one gene apart. Further read-outs or replicates are left out here.

What is on record for SFRP5 (secreted frizzled related protein 5) #1?
log2 vehicle/camptothecin viability: -0.367; viability with camptothecin: 85.4

How did the screen score SFRP5 (secreted frizzled related protein 5) #2?
log2 vehicle/camptothecin viability: -0.0238; viability with camptothecin: 86.5

What did the screen give for SFRP5 (secreted frizzled related protein 5) #3?
log2 vehicle/camptothecin viability: 0.0541; viability with camptothecin: 56.4

How did the screen score SFRP5 (secreted frizzled related protein 5) #4?
log2 vehicle/camptothecin viability: 0.117; viability with camptothecin: 42.9

For PYGB (glycogen phosphorylase B) #1, what does the deposit list?
log2 vehicle/camptothecin viability: -0.472; viability with camptothecin: 64.3

How did the screen score PYGB (glycogen phosphorylase B) #2?
log2 vehicle/camptothecin viability: -0.443; viability with camptothecin: 77.3

What is on record for PYGB (glycogen phosphorylase B) #3?
log2 vehicle/camptothecin viability: -0.127; viability with camptothecin: 72.1

Which result is listed for PYGB (glycogen phosphorylase B) #4?
log2 vehicle/camptothecin viability: -0.247; viability with camptothecin: 93.7

For TSNARE1 (t-SNARE domain containing 1) #1, how do the results read?
log2 vehicle/camptothecin viability: -0.278; viability with camptothecin: 84.2

For TSNARE1 (t-SNARE domain containing 1) #2, what does the deposit list?
log2 vehicle/camptothecin viability: -1.72; viability with camptothecin: 42

What is on record for TSNARE1 (t-SNARE domain containing 1) #3?
log2 vehicle/camptothecin viability: 0.0706; viability with camptothecin: 102

With TSNARE1 (t-SNARE domain containing 1) #4, what was measured?
log2 vehicle/camptothecin viability: -0.0296; viability with camptothecin: 73.9

How did the screen score SORCS1 (sortilin related VPS10 domain containing receptor 1) #1?
log2 vehicle/camptothecin viability: 0.0733; viability with camptothecin: 53.6

For SORCS1 (sortilin related VPS10 domain containing receptor 1) #2, how do the results read?
log2 vehicle/camptothecin viability: -0.208; viability with camptothecin: 48.1

What is on record for SORCS1 (sortilin related VPS10 domain containing receptor 1) #3?
log2 vehicle/camptothecin viability: 0.0675; viability with camptothecin: 60.8

How did the screen score XPNPEP3 (X-prolyl aminopeptidase 3) #1?
log2 vehicle/camptothecin viability: 0.661; viability with camptothecin: 31.7

What is on record for XPNPEP3 (X-prolyl aminopeptidase 3) #2?
log2 vehicle/camptothecin viability: -0.538; viability with camptothecin: 44.8

For XPNPEP3 (X-prolyl aminopeptidase 3) #3, what does the deposit list?
log2 vehicle/camptothecin viability: 0.743; viability with camptothecin: 48.5

With XPNPEP3 (X-prolyl aminopeptidase 3) #4, what does the deposit list?
log2 vehicle/camptothecin viability: -0.319; viability with camptothecin: 73.4

How did the screen score DUS3L (dihydrouridine synthase 3 like) #1?
log2 vehicle/camptothecin viability: 0.116; viability with camptothecin: 35.1

For DUS3L (dihydrouridine synthase 3 like) #2, what does the deposit list?
log2 vehicle/camptothecin viability: -0.316; viability with camptothecin: 43.4

Which result is listed for DUS3L (dihydrouridine synthase 3 like) #3?
log2 vehicle/camptothecin viability: -0.404; viability with camptothecin: 90.8

For DUS3L (dihydrouridine synthase 3 like) #4, what was measured?
log2 vehicle/camptothecin viability: -0.161; viability with camptothecin: 103

Which result is listed for GFI1 (growth factor independent 1 transcriptional repressor) #1?
log2 vehicle/camptothecin viability: 0.692; viability with camptothecin: 33.1

For GFI1 (growth factor independent 1 transcriptional repressor) #2, how do the results read?
log2 vehicle/camptothecin viability: 0.0313; viability with camptothecin: 95.6

What did the screen give for GFI1 (growth factor independent 1 transcriptional repressor) #3?
log2 vehicle/camptothecin viability: -0.113; viability with camptothecin: 104

With GFI1 (growth factor independent 1 transcriptional repressor) #4, what was measured?
log2 vehicle/camptothecin viability: -0.134; viability with camptothecin: 89

With PRMT3 (protein arginine methyltransferase 3) #1, how do the results read?
log2 vehicle/camptothecin viability: -0.334; viability with camptothecin: 93.6

How did the screen score PRMT3 (protein arginine methyltransferase 3) #2?
log2 vehicle/camptothecin viability: 0.011; viability with camptothecin: 82.3

How did the screen score PRMT3 (protein arginine methyltransferase 3) #3?
log2 vehicle/camptothecin viability: -0.307; viability with camptothecin: 48.5

What is on record for PRMT3 (protein arginine methyltransferase 3) #4?
log2 vehicle/camptothecin viability: -0.0711; viability with camptothecin: 34.7

For CTSS (cathepsin S) #1, how do the results read?
log2 vehicle/camptothecin viability: -0.0972; viability with camptothecin: 103

What did the screen give for CTSS (cathepsin S) #2?
log2 vehicle/camptothecin viability: -0.0291; viability with camptothecin: 36.2

For CTSS (cathepsin S) #3, what was measured?
log2 vehicle/camptothecin viability: -0.123; viability with camptothecin: 95.2

How did the screen score CTSS (cathepsin S) #4?
log2 vehicle/camptothecin viability: -0.378; viability with camptothecin: 52.8
